The values that follow come from patent US10066159B2, “Composite nanoparticles including a phthalic acid derivative” (3M INNOVATIVE PROPERTIES COMPANY, priority 2013, dated 2018).

The data set in a line: Quantum yield of ligand-treated green InP nanocrystals, Method 1 (toluene, Quantaurus spectrometer). The settings on record: ratio of QY of example ligand solution to QY of Reference 1 (DDSA), Stock Solution 1, toluene, 90° C. for 1.5 hours, excitation 440 nm.

In the case of `CCCCCCCCOc1cc(C(=O)O)c(C(=O)O)cc1OCCCCCCCC` [Example 2, 4,5-dioctyloxyphthalic Acid], the “Quantum Yield (QY) relative to DDSA” value was found to be 0.82.

Take `CCCCCCOc1ccc(C(=O)O)c(C(=O)O)c1` [Example 1, 4-hexyloxyphthalic Acid]: the “Quantum Yield (QY) relative to DDSA” value amounted to 0.96.
